Reference: patent US20110053874A1, “USE OF FLAVONOIDE COMPOUNDS FOR THE PROPHYLAXIS AND THERAPY OF ISCHAEMIC OR INFLAMMATORY HEART AND CARDIOVASCULAR DISEASES” (BOEHRINGER INGELHEIM INTERNATIONAL GMBH, priority 2008, published 2011)
At least one compound was matched to its structure with a doubt left.

System: human heart apices
Experiment: Preservation procedure for human heart apices (circumfusion with activated PMN and thrombocytes / whole blood)
Conditions: 100 μM QG in circumfusion fluid, 37° C., 45 minutes of circumfusion; without QG massive platelet clots in arterioles and PMN adhesion and diapedesis in venules

Q: `O=C(O)[C@H]1O[C@@H](Oc2c(-c3ccc(O)c(O)c3)oc3cc(O)cc(O)c3c2=O)[C@H](O)[C@@H](O)[C@@H]1O` [QG, quercetin glucuronide] was tested. Which “pathophysiological interactions of the two types of blood cell (PMN, platelets) with the coronary vascular system” value did it give?
A: cannot be detected
